According to PMC7473772 (eLife, 2020):
Where a name gives a salt, the structure may show the parent alone.

Tested on: tbaqp2 null (AQP2-KO)
Experiment: Drug sensitivity assay (resazurin)
Format: cell-based, Trypanosoma brucei brucei
Conditions: legend: EC50(aqp2/3 null)/EC50(TbAQP2-WT); table columns: AQP2-KO and control 2T1

Compound | RF (Resistance Factor)
Cc1ccc(OCCCCCOc2ccc(C(=N)N)cc2)cc1 [CHI/1/72/1, 4-(5-(p-tolyloxy)pentyyloxy)benzimidamide hydrochloride hydrate] | 0.82
N=C(N)c1ccc(-c2ccc(-c3ccc(C(=N)N)cc3)o2)cc1 [DB75] | 0.40
N=C(N)c1ccc(-c2ccc(-c3ccc(C(=N)N)cc3)[se]2)cc1 [DB1213] | 0.55
N=C(N)c1ccc(/N=N/Nc2ccc(C(=N)N)cc2)cc1 [Diminazene] | 0.89
CC[n+]1c(-c2ccccc2)c2cc(N)ccc2c2ccc(N)cc21 [Ethidium] | 1.05
CC[n+]1c(-c2ccccc2)c2cc(N/N=N/c3cccc(C(=N)N)c3)ccc2c2ccc(N)cc21 [Isometamidium] | 0.91
N=C(N)c1ccc(OCCCCCOc2ccc(C(=N)N)cc2)cc1 [Pentamidine] | 9.08
CNC(=N)c1ccc(OCCCCCOc2ccc(C(=N)NC)cc2)cc1 [RT-30] | 1.35
c1cc(C2=NCCN2)ccc1OCCCCCOc1ccc(C2=NCCN2)cc1 [RT-32] | 1.23
N=C(N)c1ccc(OCCCCCOc2ccc(N)cc2)cc1 [RT-36] | 0.90
N=C(N)c1ccc(OCCCCCOc2ccc(C(=N)N)cc2Cl)c(Cl)c1 [RT-43] | 1.33
N=C(N)c1ccc(SCCCCCSc2ccc(C(=N)N)cc2)cc1 [RT-48] | 6.97
N=C(N)c1ccc(NCCCCCNc2ccc(C(=N)N)cc2)cc1 [RT-50] | 17.5
N=C(N)c1ccc(OCCCCCOc2ccc(C(=N)N)cn2)nc1 [RT-52] | 5.79
